Test results taken from article PMC11574045, “A cofactor-induced repressive type of transcription factor condensation can be induced by synthetic peptides to suppress tumorigenesis” (The EMBO Journal, 2024).

Chains of the proteins cited; added tags and fusions are not shown.
UniProt Q15561: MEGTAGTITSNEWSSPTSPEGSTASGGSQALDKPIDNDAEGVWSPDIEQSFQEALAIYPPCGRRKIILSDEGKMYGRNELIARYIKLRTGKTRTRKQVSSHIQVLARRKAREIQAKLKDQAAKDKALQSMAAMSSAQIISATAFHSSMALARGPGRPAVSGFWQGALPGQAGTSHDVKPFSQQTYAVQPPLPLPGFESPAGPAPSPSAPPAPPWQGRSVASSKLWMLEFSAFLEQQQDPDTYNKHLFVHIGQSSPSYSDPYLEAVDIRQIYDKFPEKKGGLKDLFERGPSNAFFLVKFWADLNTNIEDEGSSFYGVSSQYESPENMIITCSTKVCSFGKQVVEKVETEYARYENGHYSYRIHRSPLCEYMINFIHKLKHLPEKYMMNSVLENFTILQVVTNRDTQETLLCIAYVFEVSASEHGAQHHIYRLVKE

Target: BirA-fused TEAD4 (human) (UniProt Q15561)
Assay: proximity labelling; BioID: TEAD4-BirA in HEK293FT, in triplicate; biotin 500 μM; NETN lysis with micrococcal nuclease; streptavidin beads; label-free quantitative mass spectrometry

Row | Binder | binding
1 | CTCF (protein, UniProt P49711 1-727) MEGDAVEAIVEESETFIKGKERKTYQRRREGGQEEDACHLPQNQTDGGEVVQDVNSSVQMVMMEQLDPTLLQMKTEVMEGTVAPEAEAAVDDTQIITLQVVNMEEQPINIGELQLVQVPVPVTVPVATTSVEELQGAYENEVSKEGLAESEPMICHTLPLPEGFQVVKVGANGEVETLEQGELPPQEDPSWQKDPDYQPPAKKTKKTKKSKLRYTEEGKDVDVSVYDFEEEQQEGLLSEVNAEKVVGNMKPPKPTKIKKKGVKKTFQCELCSYTCPRRSNLDRHMKSHTDERPHKCHLCGRAFRTVTLLRNHLNTHTGTRPHKCPDCDMAFVTSGELVRHRRYKHTHEKPFKCSMCDYASVEVSKLKRHIRSHTGERPFQCSLCSYASRDTYKLKRHMRTHSGEKPYECYICHARFTQSGTMKMHILQKHTENVAKFHCPHCDTVIARKSDLGVHLRKQHSYIEQGKKCRYCDAVFHERYALIQHQKSHKNEKRFKCDQCDYACRQERHMIMHKRTHTGEKPYACSHCDKTFRQKQLLDMHFKRYHDPNFVPAAFVCSKCGKTFTRRNTMARHADNCAGPDGVEGENGGETKKSKRGRKRKMRSKKEDSSDSENAEPDLDDNEDEEEPAVEIEPEPEPQPVTPAPPPAKKRRGRPPGRTNQPKQNQPTAIIQVEDQNTGAIENIIVEVKKEPDAEPAEGEEEEAQPAATDAPNGDLTPEMILSMMDR | binds
2 | ARID3B (protein, UniProt Q8IVW6 1-561) MEPLQQQQQQQQQQQKQPHLAPLQMDAREKQGQQMREAQFLYAQKLVTQPTLLSATAGRPSGSTPLGPLARVPPTAAVAQVFERGNMNSEPEEEDGGLEDEDGDDEVAEVAEKETQAASKYFHVQKVARQDPRVAPMSNLLPAPGLPPHGQQAKEDHTKDASKASPSVSTAGQPNWNLDEQLKQNGGLAWSDDADGGRGREISRDFAKLYELDGDPERKEFLDDLFVFMQKRGTPINRIPIMAKQILDLYMLYKLVTEKGGLVEIINKKIWREITKGLNLPTSITSAAFTLRTQYMKYLYAYECEKKALSSPAELQAAIDGNRREGRRPSYSSSLFGYSPAAATAAAAAGAPALLSPPKIRFPILGLGSSSGTNTSSPRISPATTLRKGDGAPVTTVPVPNRLAVPVTLASQQAGTRTAALEQLRERLESGEPAEKKASRLSEEEQRLVQQAFQRNFFSMARQLPMKIRINGRAEDRAEASAAALNLTTSSIGSINMSVDIDGTTYAGVLFAQKPVVHLITGSAPQSLGSSASSSSSSHCSPSPTSSRGTPSAEPSTSWSL | binds
3 | EMSY (protein, UniProt Q7Z589 1-1322) MPVVWPTLLDLSRDECKRILRKLELEAYAGVISALRAQGDLTKEKKDLLGELSKVLSISTERHRAEVRRAVNDERLTTIAHNMSGPNSSSEWSIEGRRLVPLMPRLVPQTAFTVTANAVANAAIQHNASLPVPAETGSKEVVCYSYTSTTSTPTSTPVPSGSIATVKSPRPASPASNVVVLPSGSTVYVKSVSCSDEDEKPRKRRRTNSSSSSPVVLKEVPKAVVPVSKTITVPVSGSPKMSNIMQSIANSLPPHMSPVKITFTKPSTQTTNTTTQKVIIVTTSPSSTFVPNILSKSHNYAAVTKLVPTSVIASTTQKPPVVITASQSSLVSNSSSGSSSSTPSPIPNTVAVTAVVSSTPSVVMSTVAQGVSTSAIKMASTRLPSPKSLVSAPTQILAQFPKQHQQSPKQQLYQVQQQTQQQVAQPSPVSHQQQPQQSPLPPGIKPTIQIKQESGVKIITQQVQPSKILPKPVTATLPTSSNSPIMVVSSNGAIMTTKLVTTPTGTQATYTRPTVSPSIGRMAATPGAATYVKTTSGSIITVVPKSLATLGGKIISSNIVSGTTTKITTIPMTSKPNVIVVQKTTGKGTTIQGLPGKNVVTTLLNAGGEKTIQTVPTGAKPAILTATRPITKMIVTQPKGIGSTVQPAAKIIPTKIVYGQQGKTQVLIKPKPVTFQATVVSEQTRQLVTETLQQASRVAEAGNSSIQEGKEEPQNYTDSSSSSTESSQSSQDSQPVVHVIASRRQDWSEHEIAMETSPTIIYQDVSSESQSATSTIKALLELQQTTVKEKLESKPRQPTIDLSQMAVPIQMTQEKRHSPESPSIAVVESELVAEYITTERTDEGTEVAFPLLVSHRSQPQQPSQPQRTLLQHVAQSQTATQTSVVVKSIPASSPGAITHIMQQALSSHTAFTKHSEELGTEEGEVEEMDTLDPQTGLFYRSALTQSQSAKQQKLSQPPLEQTQLQVKTLQCFQTKQKQTIHLQADQLQHKLPQMPQLSIRHQKLTPLQQEQAQPKPDVQHTQHPMVAKDRQLPTLMAQPPQTVVQVLAVKTTQQLPKLQQAPNQPKIYVQPQTPQSQMSLPASSEKQTASQVEQPIITQGSSVTKITFEGRQPPTVTKITGGSSVPKLTSPVTSISPIQASEKTAVSDILKMSLMEAQIDTNVEHMIVDPPKKALATSMLTGEAGSLPSTHMVVAGMANSTPQQQKCRESCSSPSTVGSSLTTRKIDPPAVPATGQFMRIQNVGQKKAEESPAEIIIQAIPQYAIPCHSSSNVVVEPSGLLELNNFTSQQLDDEETAMEQDIDSSTEDGTEPSPSQSSAERS | binds

More lines, now with the values ahead:

Row | binding | Binder
4 | binds | VGLL1 (protein, UniProt Q99990 1-258) MEEMKKTAIRLPKGKQKPIKTEWNSRCVLFTYFQGDISSVVDEHFSRALSNIKSPQELTPSSQSEGVMLKNDDSMSPNQWRYSSPWTKPQPEVPVTNRAANCNLHVPGPMAVNQFSPSLARRASVRPGELWHFSSLAGTSSLEPGYSHPFPARHLVPEPQPDGKREPLLSLLQQDRCLARPQESAARENGNPGQIAGSTGLLFNLPPGSVHYKKLYVSRGSASTSLPNETLSELETPGKYSLTPPNHWGHPHRYLQHL
5 | binds | FAM181A (protein, UniProt Q8N9Y4 1-354) MPLEERRSSGERNDAAPTNHRRPGEKRASTAKQVSSVPFLGAAGHQQSLPSSWKASCSGPLVMASDSDVKMLLNFVNLASSDIKAALDKSAPCRRSVDHRKYLQKQLKRFSQKYSRLPRGLPGRAAEPYLKRGSEDRPRRLLLDLGPDSSPGGGGGCKEKVLRNPYREECLAKEQLPQRQHPEAAQPGQVPMRKRQLPASFWEEPRPTHSYHVGLEGGLGPREGPPYEGKKNCKGLEPLGPETTLVSMSPRALAEKEPLKMPGVSLVGRVNAWSCCPFQYHGQPIYPGPLGALPQSPVPSLGLWRKSPAFPGELAHLCKDVDGLGQKVCRPVVLKPIPTKPAVPPPIFNVFGYL
6 | binds | VGLL4 (protein, UniProt Q14135 1-290) METPLDVLSRAASLVHADDEKREAALRGEPRIQTLPVASALSSHRTGPPPISPSKRKFSMEPGDEDLDCDNDHVSKMSRIFNPHLNKTANGDCRRDPRERSRSPIERAVAPTMSLHGSHLYTSLPSLGLEQPLALTKNSLDASRPAGLSPTLTPGERQQNRPSVITCASAGARNCNLSHCPIAHSGCAAPGPASYRRPPSAATTCDPVVEEHFRRSLGKNYKEPEPAPNSVSITGSVDDHFAKALGDTWLQIKAAKDGASSSPESASRRGQPASPSAHMVSHSHSPSVVS
7 | binds | RFXANK (protein, UniProt O14593 1-260) MELTQPAEDLIQTQQTPASELGDPEDPGEEAADGSDTVVLSLFPCTPEPVNPEPDASVSSPQAGSSLKHSTTLTNRQRGNEVSALPATLDSLSIHQLAAQGELDQLKEHLRKGDNLVNKPDERGFTPLIWASAFGEIETVRFLLEWGADPHILAKERESALSLASTGGYTDIVGLLLERDVDINIYDWNGGTPLLYAVRGNHVKCVEALLARGADLTTEADSGYTPMDLAVALGYRKVQQVIENHILKLFQSNLVPADPE

These are yes or no findings as the source states them, for the method shown. In cells and extracts the contact can be indirect. A yes stands for co-enrichment or nearness to the bait. Other partners may have been found.
